# Results from one PubChem assay

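Native S16 rat Schwann cells given compound for 24 h, with viability read as cellular ATP luminescence (CellTiter-Glo). Each compound ran as a dilution series from about 0.00016 to 58 µM. The number is the fitted AC50 potency for cell killing; a lower value means a more potent cytotoxic effect. Calls follow curve class, fit quality (r2) and response size; inconclusive compounds get activity scores of 1 to 39, and these rows are all inconclusive.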

Values are in µM. All entries here are filed as inconclusive. These entries are mostly ones the record files as inconclusive; other results of the assay are not listed here. A potency from a partial, single-point or poor curve is only a rough figure. Activity scores are not listed here.

* CN(C)CC[C@@](O)(c1ccccc1)c1ccccc1Cl | fitted potency 40.53 µM (cytotoxic, partial curve, poor fit)
* CC(C)(C)NC[C@@H](O)COc1ccccc1C1CCCC1 | fitted potency 4.361 µM (cytotoxic, full curve, poor fit)
* NCCNc1cccc2ccccc12 | fitted potency 0.0081 µM (cytotoxic, full curve, poor fit)
* Clc1cccc(SC2CCNCC2)n1 | fitted potency 36.13 µM (cytotoxic, single point)
* CN(Cc1ccc(C(C)(C)C)cc1)Cc1cccc2ccccc12 | fitted potency 36.13 µM (cytotoxic, single point)
* COc1ccc(CC(N)C(=O)NC2C(CO)OC(n3cnc4c(N(C)C)ncnc43)C2O)cc1 (stereo unspecified) | fitted potency 32.2 µM (cytotoxic, partial curve)
* O=C1c2ccccc2C(=O)C1C(=O)C(c1ccccc1)c1ccccc1 | fitted potency 16.14 µM (cytotoxic, partial curve, poor fit)
* CCNC(=O)/C=C/c1cccc(Br)c1 | fitted potency 32.2 µM (cytotoxic, partial curve, poor fit)
* C[C@]12CC[C@@H]3c4ccc(O)cc4CC[C@H]3[C@@H]1CCC2OC(=O)CCC1CCCC1 (stereo partly specified) | fitted potency 36.13 µM (cytotoxic, single point)
* CC(C)(Oc1ccc(C2CCCc3ccccc32)cc1)C(=O)O (stereo unspecified) | fitted potency 0.0026 µM (cytotoxic, full curve, poor fit)
* C(=C\c1ccncc1)/c1ccccc1 | fitted potency 36.13 µM (cytotoxic, partial curve, poor fit)
* NC(=NCCCCCCN=C(N)/N=C(\N)Nc1ccc(Cl)cc1)/N=C(\N)Nc1ccc(Cl)cc1 | fitted potency 40.53 µM (cytotoxic, single point)
* CCC[C@@H]1O[C@@H]2C[C@@H]3[C@H]4CCC5=CC(=O)C=C[C@@]5(C)[C@H]4[C@H](O)C[C@@]3(C)[C@@]2(C(=O)CO)O1 | fitted potency 16.14 µM (cytotoxic, single point)
* CN1CCN(C2=Nc3cc(Cl)ccc3Nc3ccccc32)CC1 | fitted potency 32.2 µM (cytotoxic, partial curve, poor fit)
* Oc1c(I)cc(I)c2cccnc12 | fitted potency 40.53 µM (cytotoxic, single point)

2 of the entries, repeated:

| Compound | fitted potency (µM) | curve as filed |
|---|---|---|
| `O=C1c2ccccc2C(=O)C1C(=O)C(c1ccccc1)c1ccccc1` | 16.14 | cytotoxic, partial curve, poor fit |
| `C[C@]12CC[C@@H]3c4ccc(O)cc4CC[C@H]3[C@@H]1CCC2OC(=O)CCC1CCCC1` (stereo partly specified) | 36.13 | cytotoxic, single point |

From PubChem BioAssay record AID624031 (NCATS, 2012).